Biological target: T1, Aromatase (Homo sapiens, UniProt P11511)
T1 sequence (P11511 whole entry): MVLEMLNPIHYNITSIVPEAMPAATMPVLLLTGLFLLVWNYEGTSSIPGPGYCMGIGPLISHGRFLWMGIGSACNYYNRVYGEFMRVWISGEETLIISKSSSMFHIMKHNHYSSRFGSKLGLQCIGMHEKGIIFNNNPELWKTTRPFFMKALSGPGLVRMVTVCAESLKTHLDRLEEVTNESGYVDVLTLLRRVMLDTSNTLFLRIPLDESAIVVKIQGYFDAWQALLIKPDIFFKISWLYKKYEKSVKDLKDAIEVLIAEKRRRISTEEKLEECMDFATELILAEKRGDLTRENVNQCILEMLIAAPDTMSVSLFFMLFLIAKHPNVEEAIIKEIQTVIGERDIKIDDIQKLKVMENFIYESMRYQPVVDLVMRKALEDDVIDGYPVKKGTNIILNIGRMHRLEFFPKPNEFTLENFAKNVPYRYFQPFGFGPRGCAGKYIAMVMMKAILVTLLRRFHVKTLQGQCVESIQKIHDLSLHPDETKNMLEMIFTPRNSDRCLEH

CC(C)(C#N)c1cc(Cn2cncn2)cc(C(C)(C)C#N)c1 [ANASTROZOLE]
IC50: 12 nM
